Results published in US20240000740A1, “OMEGA-3 POLYUNSATURATED FATTY ACIDS FOR TREATING / PREVENTING MALE INFERTILITY IN PREPUBERTAL CANDIDATES FOR GONADOTOXIC THERAPIES” (UNIVERSITA' DEGLI STUDI DI PERUGIA, priority 2020, published 2024).
“Also recorded” adds a separate entry of the source. At least one structure is not confirmed: it was looked up by name or label, or the drawing left a doubt.

What was measured:
GDNF [1] = assay: Real-time PCR analysis of GDNF gene expression in SCs of prepubertal pigs; assay type: cell-based, pig
Protocol: (§1) The animal studies were conducted in accordance with national guidelines (approved Italian animal protection certification A-3143-01) and guidelines of the Committee for the Care and Use of Animals of the University of Perugia. The experimental protocols were approved by the University of Perugia. The newborn prepubertal “Large White” pigs (Farm “Trequattrini”, S. Elena di Marsciano, PG), aged 7-15 days, were used as SC donors. The SCs were isolated in accordance with previously established methods, modified in our laboratory (Luca et al., 2015). […]
Total RNA was isolated from the monolayers of untreated SCs and SCs treated with chemotherapeutic drugs (plus EPA or without EPA) by means of an RNA purification kit (Versagene RNA Cell Kit, Gentra Systems, Minneapolis, MN) and quantified by reading the optical density at 260 nm. […] The level of mRNA for each sample was normalised with respect to the mRNA of β-actin and expressed as a change compared to the level of the untreated control cells.

GDNF [2] = assay: Western blotting and densitometric analysis of GDNF protein expression in SCs of prepubertal pigs; assay type: cell-based, pig; conditions: SCs treated with cisplatin 3.33 μM in the presence of 100 μM EPA
Protocol: as §1
The SCs were cultured at 37° C. and 5% CO2 in HAMF-12 (Euroclone, MI, Italy) supplemented with 0.166 nM of retinoic acid (Sigma-Aldrich, St. Louis, MO, USA) and 5 mL/500 ml of ITS (Becton Dickinson cat. no. 354352, NJ, USA) in the absence (untreated) or presence of cisplatin 0.5 and 1 μg/ml for 48 hours plus 24 of recovery and with the addition of 100 μM EPA. […] The images were acquired by means of the VersaDoc Imaging System (Bio-Rad Hercules, CA, USA), and the respective signals were quantified using Quantity One software (Bio-Rad) 2.8.

AMH [3] = assay: Real-time PCR analysis of AMH gene expression in SCs of prepubertal pigs; assay type: cell-based, pig; conditions: SCs treated with cisplatin 3.33 μM in the presence of 100 μM EPA
inhibin B [4] = assay: Real-time PCR analysis of inhibin B gene expression in SCs of prepubertal pigs; assay type: cell-based, pig; conditions: SCs treated with cisplatin 3.33 μM in the presence of 100 μM EPA
AMH [5] = assay: AMH secretion by ELISA in supernatants of SC cultures; assay type: cell-based, pig; conditions: SCs treated with cisplatin 3.33 μM in the presence of 100 μM EPA
inhibin B [6] = assay: Inhibin B secretion by ELISA in supernatants of SC cultures; assay type: cell-based, pig; conditions: SCs treated with cisplatin 3.33 μM in the presence of 100 μM EPA
mouse Sertoli cells = conditions: cultures of mouse Sertoli cells; cited from earlier work
TET proteins = conditions: by activating TET proteins, transforming 5-methyl cytosine into 5-hydroxymethylcytosine; cited from earlier work
HDAC1 and DNMT = conditions: cited from earlier work

With `CC/C=C\C/C=C\C/C=C\C/C=C\C/C=C\CCCC(=O)O` [EPA, eicosapentaenoic acid] as the compound, how does the “gene expression of Sertolian GDNF” value (GDNF [1]; SCs treated with cisplatin 3.33 μM in the presence of 100 μM EPA) read?
Its value is “surprisingly recovered; also recorded: protective effect; also recorded: recovery”.

What about the “recovery in the expression of GDNF, effectiveness compared with AZA” value (GDNF [1]; SCs treated with cisplatin 3.33 μM plus EPA 100 μM, compared with AZA treatment) of the same compound?
Its value is “greater effectiveness”.

And the “protein expression of Sertolian GDNF (WB, densitometric analysis)” value (GDNF [2])?
The value was “surprisingly recovered; also recorded: protective effect; also recorded: recovery”.

And the “gene expression of AMH” value (AMH [3])?
Its value is “surprisingly recovered; also recorded: comparable to those of the control group; also recorded: protective effect; also recorded: recovery”.

What about the “gene expression of inhibin B” value (inhibin B [4]) of the same compound?
The value was “surprisingly recovered; also recorded: comparable to those of the control group; also recorded: protective effect; also recorded: recovery”.

What about the “secretion of AMH” value (AMH [5]) of the same compound?
The value was “surprisingly recovered; also recorded: comparable to those of the control group; also recorded: protective effect; also recorded: recovery”.

What about the “secretion of inhibin B” value (inhibin B [6]) of the same compound?
The value was “surprisingly recovered; also recorded: comparable to those of the control group; also recorded: protective effect; also recorded: recovery”.

And the “effect through inhibition of apoptosis, lipoperoxidation and production of active radical oxygen species” value (mouse Sertoli cells)?
Its value is “protective effect”.

And the “levels of DNA methylation” value (TET proteins)?
Its value is “decreasing”.

And the “expression and activity of histone deacetylase and DNA methyltransferases (HDAC1 and DNMT)” value (HDAC1 and DNMT)?
The value was “inhibiting”.
